No constants are given. Whether binding was seen depends on the method and setting. Some binding calls cover weakened binding; strength is not graded here.
Legend:
[1] = target: Aβ plaques / amyloid deposits in brain of transgenic mice over-expressing human APP751 with London and Swedish mutations (hAPP751SL) (human) (UniProt P05067); test: fluorescence microscopy of brain slices of hAPP751SL transgenic mice incubated with the labeled probe, overlaid with anti-Aβ antibody / Thioflavin S staining
[2] = target: Aβ plaques / amyloid deposits in brain of transgenic mice over-expressing human APP751 with London and Swedish mutations (hAPP751SL) (human) (UniProt P05067); test: in vivo intranasal administration to hAPP751SL transgenic mice, fluorescence microscopy of brain slices

## KLVFFAEDVGSNKGAIIGLM (pyrene label at each terminus) [Peptide probe specific for Aβ (SEQ ID NO:36) labeled at each terminus with pyrene]
[1]
  binding: binds
[2]
  binding: binds

Reference: US20130108549A1
